Results reported in PubChem BioAssay AID1671190 (National Center for Advancing Translational Sciences (NCATS), 2021).
Where “and” joins values, the source holds several entries; their conditions need not be identical. Equal entries are not always repeated. About 6,100 (1.1%) of roughly 580,000 compounds were called active. This list was built around the results that the source calls inconclusive (neither active nor inactive); the mix of calls is not that of the screen. Calls come from the whole dose curve; as a rule, active = well fitted inhibition curve with a large enough effect; inconclusive = small, poorly fitted or top-dose-only effect, or another doubt; inactive = no such curve, though single readings can be large or run the other way. Potencies of inconclusive entries are doubtful fits and often do not repeat.

Chains of the proteins cited; added tags and fusions are not shown. Lines headed by an entry give the natural chain unless they say otherwise; changes in a name come on top.
UniProt P18054: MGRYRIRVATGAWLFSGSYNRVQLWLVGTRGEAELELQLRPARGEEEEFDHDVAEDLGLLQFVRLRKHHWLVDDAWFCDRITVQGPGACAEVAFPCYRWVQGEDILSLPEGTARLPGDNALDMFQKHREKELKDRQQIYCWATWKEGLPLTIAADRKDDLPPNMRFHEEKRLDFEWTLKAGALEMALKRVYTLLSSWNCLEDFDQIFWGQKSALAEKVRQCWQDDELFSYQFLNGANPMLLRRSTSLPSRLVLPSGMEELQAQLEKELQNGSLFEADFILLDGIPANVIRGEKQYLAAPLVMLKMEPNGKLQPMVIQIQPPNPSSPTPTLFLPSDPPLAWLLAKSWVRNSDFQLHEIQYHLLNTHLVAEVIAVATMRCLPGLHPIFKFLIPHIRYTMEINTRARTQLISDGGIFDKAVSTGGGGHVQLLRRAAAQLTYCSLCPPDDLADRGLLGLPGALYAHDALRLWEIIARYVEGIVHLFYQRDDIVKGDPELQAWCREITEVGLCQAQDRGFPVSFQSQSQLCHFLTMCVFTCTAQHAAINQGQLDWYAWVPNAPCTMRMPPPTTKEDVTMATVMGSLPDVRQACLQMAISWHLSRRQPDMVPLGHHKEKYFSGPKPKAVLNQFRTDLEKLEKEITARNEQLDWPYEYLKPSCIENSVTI

Biological target: Polyunsaturated fatty acid lipoxygenase ALOX12 (Homo sapiens) (UniProt P18054)
Assay: Primary qHTS assay for inhibitors of human arachidonate 12S-lipoxygenase (ALOX12): Round 2
Conditions: purified 12hLO, xylenol orange hydroperoxide absorbance; series mostly up to 108 µM
In short: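 Purified human 12hLO at 150 nM in 25 mM Hepes, 0.01% Triton X-100, pH 7.0, preincubated 15 min at room temperature with compound. Reaction started with 40 uM arachidonic acid, 30 min at room temperature. Hydroperoxide measured by Fe-xylenol orange, 573/405 nm absorbance ratio.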
Potency is the fitted concentration of half-maximal effect.

Row | SMILES | Potency
1 | CC(=O)N1CCC(C(=O)OCc2ccc(Cl)cc2)(c2ccccc2)CC1 | inconclusive: 100 µM [inhibitor, single point]
2 | O=S(=O)(c1ccc(-c2csc(NCCc3ccccc3)n2)cc1)N1CCOCC1 | inconclusive: 28.2 µM [inhibitor, partial curve]
3 | CCc1ccc(C2C(C#N)=C(N)SC(N)=C2C#N)cc1 | inconclusive: 31.6 µM [inhibitor, partial curve, poor fit]
4 | CO[C@H]1O[C@@H]2COC(c3ccccc3)O[C@H]2[C@@H]2OC(c3ccccc3)O[C@H]12 (some centres undefined) | inconclusive: 100 µM [inhibitor, single point]
5 | Clc1ccc(NN(Cc2ccncc2)c2ccc(Cl)cc2)cc1 | inconclusive: 56.2 µM [inhibitor, partial curve, poor fit]
6 | CC(=O)Nc1ccc(S(=O)(=O)Nc2ccc3c(c2)n(C)c(=O)n3C)c(C)c1 | inconclusive: 141 µM [inhibitor, partial curve, poor fit]
7 | CC1CCCC(NC(=O)c2ccccc2SCC#N)C1 (centres undefined) | inconclusive: 50.1 µM [inhibitor, partial curve, poor fit]
8 | Clc1ccccc1-c1nnn(Cc2ccc(-c3nn[nH]n3)cc2)n1 | inactive
9 | CNc1nc(-c2c(C)noc2C)nc2ccccc12 | inconclusive: 100 µM [inhibitor, partial curve, poor fit]
10 | Cc1cccc(CNC(=O)c2ccc(Cn3c(SCc4ccccc4)nc4cccnc43)cc2)c1 | inactive
11 | Cc1cccc(N2N=C(C(=O)Nc3ccc(Cl)c(S(=O)(=O)N4CCOCC4)c3)CCC2=O)c1 | inconclusive: 50.1 µM [inhibitor, partial curve, poor fit]
12 | Cc1c(C(=O)NC2CCN(Cc3ccccc3)C2)oc2c(Cl)cccc12 (centres undefined) | inconclusive: 56.2 µM [inhibitor, partial curve, poor fit]
13 | Cc1ccc(S(=O)(=O)N(CC(=O)N2CCN(C)CC2)c2cccc(Br)c2)cc1 | inconclusive: 56.2 µM [inhibitor, partial curve, poor fit]
14 | Cc1ccc(-c2cc3c(=O)n(CCNC(=O)c4ccc5c(c4)OCO5)ccn3n2)cc1C | inconclusive: 100 µM [inhibitor, single point]
15 | COc1cc(C2C(C(=O)c3cccs3)=C(O)C(=O)N2CCN2CCOCC2)ccc1OCCC(C)C (centres undefined) | inconclusive: 50.1 µM [inhibitor, single point]
16 | CC(C)C[C@@H]1CC2=C(C(=O)OC(C)(C)O2)[C@H](CCc2ccccc2)O1 | inconclusive: 35.5 µM [inhibitor, single point]
17 | O=C(O)C1COCCO1 (centres undefined) | inconclusive: 39.8 µM [inhibitor, partial curve, poor fit]
18 | NC[C@H](O)c1ccc(O)c(O)c1 | inconclusive: 9.68 µM [inhibitor, partial curve] and inconclusive: 31.6 µM [inhibitor, single point] and inconclusive: 44.7 µM [inhibitor, partial curve, poor fit]
19 | O=C(c1cccs1)N1CCC(N2CC(OCC3CC3)C23CCCCC3)CC1 (centres undefined) | inactive
20 | COc1ccc2cc(S(=O)(=O)NCc3cccnc3)ccc2c1 | inactive

Row | SMILES | Potency
21 | O=S(=O)(O)c1cc(O)c(N=Nc2ccc(O)cc2O)c2ccccc12 | active: 8.91 µM
22 | O=C(O)c1cccc(NC(=S)N/N=C/c2c[nH]c3ccccc23)c1 | inconclusive: 44.7 µM [inhibitor, partial curve, poor fit]
23 | COC(=O)C1=C(C)N(Cc2ccc(C(F)(F)F)cc2)C(=NCc2ccccc2C(F)(F)F)NC1c1ccc(F)cc1 (centres undefined) | inconclusive: 100 µM [inhibitor, partial curve, poor fit]
24 | Cc1cccc(NC(=O)c2cc(-c3ccc[nH]3)n[nH]2)c1 | inconclusive: 25.1 µM [inhibitor, full curve]
25 | O=C(CSc1nc(=O)[nH]c2c1CCCC2)NCc1ccc(Cl)cc1 | inconclusive: 100 µM [inhibitor, partial curve, poor fit]
26 | COc1ccc(Br)cc1CN1CCN(C(=O)c2cccc(F)c2)CC1 | inconclusive: 89.1 µM [inhibitor, single point]
27 | Cc1cccc(Cn2cccc2CNC(=O)NC23CC4CC(CC(C4)C2)C3)c1 | inconclusive: 89.1 µM [inhibitor, single point]
28 | CC(NC1CCCc2ccccc21)C(=O)c1c[nH]c2ccccc12 (centres undefined) | inconclusive: 50.1 µM [inhibitor, partial curve, poor fit]
29 | Cc1ccnc(NC(=O)c2cnc3ccccc3n2)c1 | inactive
30 | Cc1ccc(CSCC(=O)N/N=C/c2ccc(OCC(=O)Nc3ccc(C)cc3)cc2)cc1 | inactive
31 | COc1ccccc1NS(=O)(=O)c1cc(N)ccc1N1CCCC1 | inconclusive: 35.5 µM [inhibitor, partial curve, poor fit]
32 | CCN(CCCNC(=O)c1cc2c(=O)[nH]c3ccc(C)cc3c2s1)Cc1ccccc1 | inconclusive: 28.2 µM [inhibitor, single point]
33 | CCCCOc1ccc(C(=O)NCCN2CCC(n3c(=O)[nH]c4ccccc43)CC2)cc1 | inconclusive: 44.7 µM [inhibitor, partial curve]
34 | COc1cc(C)c2c(c1C)C[C@H](C(C)C(=O)NCc1cccs1)CC2 (some centres undefined) | inconclusive: 158 µM [inhibitor, partial curve, poor fit]
35 | COc1ccc(C2=Nc3cc(C)ccc3OC2)cc1 | inconclusive: 50.1 µM [inhibitor, partial curve, poor fit]
36 | Cc1cccc(N2CCN(C(=S)Nc3ccc4nc(N5CCOCC5)cc(C)c4c3)CC2C)c1 (centres undefined) | inactive
37 | COC(=O)c1cccc(-n2c(C)cc(C=O)c2C)c1 | inactive
38 | C[C@H]1CN([C@@H](C)CO)C(=O)CCCn2nncc2CO[C@H]1CN(C)C(=O)Cc1ccccc1 | inactive
39 | CCc1cn(C[C@H](NC(=O)C2CCC2)C(=O)O)c(=O)[nH]c1=O | inconclusive: 17.8 µM [inhibitor, partial curve]

Reformatted with tabs: part of the list above.
Row	SMILES	Potency
22	O=C(O)c1cccc(NC(=S)N/N=C/c2c[nH]c3ccccc23)c1	inconclusive: 44.7 µM [inhibitor, partial curve, poor fit]
36	Cc1cccc(N2CCN(C(=S)Nc3ccc4nc(N5CCOCC5)cc(C)c4c3)CC2C)c1 (centres undefined)	inactive
